Literature values as cited in US8163312B2, “Herbal formulation for prevention and treatment of diabetes and associated complications” (Innoveda Biological Solutions (P) Ltd., priority 2008, dated 2012).
At least one structure is not confirmed: it was looked up by name or label, or the drawing left a doubt.

Assays:
[1] = tested on: neonatal rat cardiac fibroblasts
[2] = tested on: THP-1 differentiated macrophages
[3] = molecular target: T1, PPAR-alpha (Homo sapiens, UniProt Q07869); conditions: human embryonic kidney 293 cells
T1 construct: host or cells: human embryonic kidney 293 cells
T1 sequence (Q07869 1-468): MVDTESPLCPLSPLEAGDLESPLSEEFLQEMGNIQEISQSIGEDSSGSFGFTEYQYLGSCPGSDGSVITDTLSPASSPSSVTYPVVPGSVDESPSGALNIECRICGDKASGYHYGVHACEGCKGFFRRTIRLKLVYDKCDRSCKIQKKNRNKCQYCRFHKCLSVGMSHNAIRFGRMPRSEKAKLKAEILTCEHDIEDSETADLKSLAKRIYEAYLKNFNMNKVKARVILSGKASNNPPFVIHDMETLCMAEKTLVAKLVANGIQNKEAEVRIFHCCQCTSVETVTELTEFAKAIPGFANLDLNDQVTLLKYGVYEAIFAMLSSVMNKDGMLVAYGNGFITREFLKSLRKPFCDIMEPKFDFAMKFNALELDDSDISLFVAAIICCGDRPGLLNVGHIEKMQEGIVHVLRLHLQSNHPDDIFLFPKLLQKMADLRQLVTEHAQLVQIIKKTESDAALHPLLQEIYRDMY

[4] = tested on: embryonic rat heart-derived H9c2 cells; conditions: 25 micromol
[5] = tested on: male albino rats; conditions: rat, in vivo

| SMILES | angiotensin II-stimulated [(3)H]thymidine incorporation [1] | lipoprotein lipase mRNA expression and enzyme activity [2] | PPAR-alpha luciferase activity [3] | angiotensin II-induced ANP mRNA overexpression and protein synthesis [4] | lipid metabolism [5] |
| --- | --- | --- | --- | --- | --- |
| O=c1c2cc(O)c(O)cc2oc2cc(O)c([C@@H]3O[C@H](CO)[C@@H](O)[C@H](O)[C@H]3O)c(O)c12 [MA, mangiferin] | inhibited | activated | activated | suppressed | – |
| CCCCCCCCCCCC1=C(O)C(=O)C=C(O)C1=O [embelin] | – | – | – | – | significant impairment |
